These are yes or no findings as the source states them, for the method shown. Binding seen in cells or lysates may run through a third protein. Some entries that bind do so weakly or less than the wild type.

By UniProt entry, the sequences of proteins in these tests, tags left out.
UniProt P03372: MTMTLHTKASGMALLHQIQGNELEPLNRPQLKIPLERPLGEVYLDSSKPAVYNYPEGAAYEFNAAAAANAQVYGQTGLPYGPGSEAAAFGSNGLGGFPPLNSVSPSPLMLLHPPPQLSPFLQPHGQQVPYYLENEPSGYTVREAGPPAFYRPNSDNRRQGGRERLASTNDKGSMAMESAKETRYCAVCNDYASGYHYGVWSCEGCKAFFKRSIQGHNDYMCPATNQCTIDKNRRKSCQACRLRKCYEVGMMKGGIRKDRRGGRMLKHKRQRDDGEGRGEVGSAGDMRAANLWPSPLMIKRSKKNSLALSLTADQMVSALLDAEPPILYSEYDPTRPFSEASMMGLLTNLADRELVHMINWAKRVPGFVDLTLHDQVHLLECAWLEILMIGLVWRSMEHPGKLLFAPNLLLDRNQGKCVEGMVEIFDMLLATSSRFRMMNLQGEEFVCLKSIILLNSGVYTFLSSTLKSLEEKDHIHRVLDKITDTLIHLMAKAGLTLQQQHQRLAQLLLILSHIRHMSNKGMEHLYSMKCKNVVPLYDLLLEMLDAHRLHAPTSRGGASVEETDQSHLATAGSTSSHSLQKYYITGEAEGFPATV

This test addresses Estrogen receptor alpha (human (endogenous in MCF-7)) (UniProt P03372). Briefly: proximity ligation; Duolink PLA on fixed, permeabilised MCF-7 cells with anti-FXR and anti-ER primary antibodies; cells in steroid-free medium, untreated control or CDCA 2 10^-5 M for 30 s to 1 h; confocal microscopy, signal quantified by image analysis on four independent cultures.

B1: Farnesoid X receptor (protein, UniProt Q96RI1 1-486)
chain: MVMQFQGLENPIQISPHCSCTPSGFFMEMMSMKPAKGVLTEQVAGPLGQNLEVEPYSQYSNVQFPQVQPQISSSSYYSNLGFYPQQPEEWYSPGIYELRRMPAETLYQGETEVAEMPVTKKPRMGASAGRIKGDELCVVCGDRASGYHYNALTCEGCKGFFRRSITKNAVYKCKNGGNCVMDMYMRRKCQECRLRKCKEMGMLAECMYTGLLTEIQCKSKRLRKNVKQHADQTVNEDSEGRDLRQVTSTTKSCREKTELTPDQQTLLHFIMDSYNKQRMPQEITNKILKEEFSAEENFLILTEMATNHVQVLVEFTKKLPGFQTLDHEDQIALLKGSAVEAMFLRSAEIFNKKLPSGHSDLLEERIRNSGISDEYITPMFSFYKSIGELKMTQEEYALLTAIVILSPDRQYIKDREAVEKLQEPLLDVLQKLCKIHQPENPQHFACLLGRLTELRTFNHHHAEMLMSWRVNDHKFTPLLCEIWDVQ
Take B1: the binding entry is recorded as “binds”.

The record behind these values is paper PMC7350202.
